Data taken from patent US20090029984A1 (priority 2005, published 2009).
Values joined by “and” are separate entries in the source; they are usually repeats but may differ in a detail not shown here. Equal entries are not always repeated. Where two headings read alike, the source gives them in different places.

Tests used:
mice [1] = conditions: mouse, in vivo, iv
[2] = mice, 3 μmol/kg intravenous dose
mice [3] = test system: mice
in vivo = conditions: male, ICR, mouse, brain and plasma, iv, 3 umol/kg
[4] = 5% mulgofen s.c. (−20 min), then morphine 1.51 μmol/kg + Compound 1a 1.0 μmol/kg i.v.
[5] = SR141716A 3.0 μmol/kg s.c. (−20 min), then morphine 1.51 μmol/kg + Compound 1a 1.0 μmol/kg i.v.
[6] = 5% mulgofen s.c. (−20 min), then morphine 1.51 μmol/kg + 10% tween 80 i.v.

| Structure (SMILES) | Tmax post-injection (mice [1]) | maximum measured concentration in brain homogenate [2] [ng/g] | maximum measured concentration in plasma [2] [ng/mL] | % of MPE at Tmax (mice [3]; [4]) [%] | Tail flick latency (s) + s.e.m. at Tmax (mice [3]; [4]) [s] | % of MPE at Tmax (mice [3]; [5]) [%] | Tail flick latency (s) + s.e.m. at Tmax (mice [3]; [5]) [s] | Kp (in vivo) | Tail flick latency (s) + s.e.m. at Tmax (mice [1]) | % of MPE at Tmax (mice [3]; [6]) [%] | Tail flick latency (s) + s.e.m. at Tmax (mice [3]; [6]) [s] | Tail flick latency (s) + s.e.m. at Tmax (mice [3]; 5% mulgofen s.c. (−20 min), then morphine 1.51 μmol/kg + 10% tween 80 i.v., listed as Morphine) [s] |
| --- | --- | --- | --- | --- | --- | --- | --- | --- | --- | --- | --- | --- |
| CCOC(=O)c1c(C)cc2nc(COC(=O)NCCO)n(-c3ccccc3S(=O)(=O)NC)c(=O)c2c1C [Compound 1a, 2-(2-Hydroxy-ethylcarbamoyloxymethyl)-5,7-dimethyl-3-(2-methylsulfamoylphenyl)-4-oxo-3,4-dihydro-quinazoline-6-carboxylic acid ethyl ester] | 40 min and 20 min | 43 | 2515 | 92.1 | 11.33 ± 0.36 | 38.0 | 6.75 ± 0.77 | 0.02 |  |  |  |  |
| Cl.O=C(NCCO)[C@H]1CCCN(Cc2nc(-c3cn(CC4CCS(=O)(=O)CC4)c4c(Cl)cccc34)ns2)C1 [Compound 2, (S)-7-Chloro-3-[(5-{[3-N-(2-hydroxyethyl)carboxamido]piperidin-1-yl}methyl)([1,2,4]-thiadiazol-3-yl)]-1-(1,1-dioxo-hexahydrothiopyran-4-yl)methyl-1H-indole, hydrochloride salt] | 40 min | 18 | 528 |  |  |  |  | 0.03 |  |  |  |  |
| CN1CC[C@]23c4c5ccc(O)c4O[C@H]2[C@@H](O)C=C[C@H]3[C@H]1C5 [morphine, reference compound] |  |  |  |  |  |  |  |  | 7.75 ± 0.81 s and 7.09 ± 0.17 s | 38.3 | 6.78 ± 0.27 | 6.78 ± 0.27 |
